According to the supplement of paper PMC8728848:
Some of the results follow.

Key:
Assay in all cases: glycan array binding signal (z-score within array); higher = stronger binding
Conditions in all cases: glycan notation: IUPAC condensed, linker removed
[1] = molecular target: GalNAc(a1-3)GalNAc(b1-3)Gal(a1-4)Gal(b1-4)GlcNAc
Procedure, shortened: (§1)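 The binding signal is a Z-score computed within each array. Data were drawn from 3228 arrays in the Consortium for Functional Glycomics database, restricted to those with a known protein sequence. Scores were averaged over arrays of the same protein sequence at different concentrations or buffers, and over linkers, and negative values can be taken as non-binding.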

GalNAc(b1-3)Gal = molecular target: GalNAc(b1-3)Gal
Procedure, shortened: as §1

[2] = molecular target: GalNAc(b1-3)Gal(a1-4)Gal(b1-4)GlcNAc
Procedure, shortened: as §1

[3] = molecular target: GalNAc(b1-3)Gal(a1-4)Gal(b1-4)GlcNAc(b1-3)Gal(b1-4)Glc
Procedure, shortened: as §1

[4] = molecular target: GalNAc(b1-3)Gal(a1-6)Gal(b1-4)Glc
Procedure, shortened: as §1

GalNAc(b1-3)GalNAc = molecular target: GalNAc(b1-3)GalNAc
Procedure, shortened: as §1

GalNAc(b1-3)GlcNAc = molecular target: GalNAc(b1-3)GlcNAc
Procedure, shortened: as §1

GalNAc(b1-4)Gal(b1-4)Glc = molecular target: GalNAc(b1-4)Gal(b1-4)Glc
Procedure, shortened: as §1

GalNAc(b1-4)GlcNAc = molecular target: GalNAc(b1-4)GlcNAc
Procedure, shortened: as §1

[5] = molecular target: GalNAc(b1-4)GlcNAc(b1-2)Man
Procedure, shortened: as §1

[6] = molecular target: GalNAc(b1-4)GlcNAc(b1-2)Man(a1-3)[GalNAc(b1-4)GlcNAc(b1-2)Man(a1-6)]Man(b1-4)GlcNAc(b1-4)GlcNAc
Procedure, shortened: as §1

[7] = molecular target: GalNAc(b1-4)GlcNAc(b1-3)GalNAc(b1-4)GlcNAc
Procedure, shortened: as §1

GalNAc(b1-4)GlcNAc6S = molecular target: GalNAc(b1-4)GlcNAc6S
Procedure, shortened: as §1

GalNAc(b1-6)GalNAc = molecular target: GalNAc(b1-6)GalNAc
Procedure, shortened: as §1

GalNAc3S(b1-4)GlcNAc = molecular target: GalNAc3S(b1-4)GlcNAc
Procedure, shortened: as §1

GalNAc3S(b1-4)GlcNAc3S = molecular target: GalNAc3S(b1-4)GlcNAc3S
Procedure, shortened: as §1

[8] = molecular target: GalNAc3S(b1-4)[Fuc(a1-3)]GlcNAc
Procedure, shortened: as §1

GalNAc4S6S(b1-4)GlcNAc = molecular target: GalNAc4S6S(b1-4)GlcNAc
Procedure, shortened: as §1

GalNAc6S(b1-4)GlcNAc = molecular target: GalNAc6S(b1-4)GlcNAc
Procedure, shortened: as §1

Glc(a1-4)Glc = molecular target: Glc(a1-4)Glc
Procedure, shortened: as §1

[9] = molecular target: Glc(a1-4)Glc(a1-4)Glc(a1-4)Glc
Procedure, shortened: as §1

Glc(a1-6)Glc(a1-6)Glc = molecular target: Glc(a1-6)Glc(a1-6)Glc
Procedure, shortened: as §1

[10] = molecular target: Glc(a1-6)Glc(a1-6)Glc(a1-6)Glc
Procedure, shortened: as §1

Glc(b1-4)Glc = molecular target: Glc(b1-4)Glc
Procedure, shortened: as §1

Glc(b1-6)Glc = molecular target: Glc(b1-6)Glc
Procedure, shortened: as §1

GlcA(b1-3)Gal = molecular target: GlcA(b1-3)Gal
Procedure, shortened: as §1

GlcA(b1-3)GlcNAc = molecular target: GlcA(b1-3)GlcNAc
Procedure, shortened: as §1

GlcA(b1-6)Gal = molecular target: GlcA(b1-6)Gal
Procedure, shortened: as §1

[11] = molecular target: GlcA3S(b1-3)Gal(b1-4)GlcNAc(b1-2)Man
Procedure, shortened: as §1

[12] = molecular target: GlcA3S(b1-3)Gal(b1-4)GlcNAc(b1-3)Gal(b1-4)Glc
Procedure, shortened: as §1

[13] = molecular target: GlcNAc(a1-3)Gal(b1-4)GlcNAc
Procedure, shortened: as §1

[14] = molecular target: GlcNAc(a1-4)Gal(b1-3)GlcNAc
Procedure, shortened: as §1

[15] = molecular target: GlcNAc(a1-4)Gal(b1-4)GalNAc
Procedure, shortened: as §1

[16] = molecular target: GlcNAc(a1-4)Gal(b1-4)GlcNAc
Procedure, shortened: as §1

[17] = molecular target: GlcNAc(a1-4)Gal(b1-4)GlcNAc(b1-3)Gal(b1-4)Glc
Procedure, shortened: as §1

[18] = molecular target: GlcNAc(a1-4)Gal(b1-4)GlcNAc(b1-3)Gal(b1-4)GlcNAc
Procedure, shortened: as §1

[19] = molecular target: GlcNAc(a1-4)Gal(b1-4)GlcNAc(b1-3)Gal(b1-4)GlcNAc(b1-3)Gal(b1-4)GlcNAc
Procedure, shortened: as §1

[20] = molecular target: GlcNAc(a1-4)Gal(b1-4)GlcNAc(b1-3)Gal(b1-4)[Fuc(a1-3)]GlcNAc(b1-3)Gal(b1-4)[Fuc(a1-3)]GlcNAc
Procedure, shortened: as §1

B1: Epa21 (Candida glabrata) (protein)
chain: MGSSHHHHHHSSGLVPRGSHMASTPNIESHPQGCSPVDTSGIKPGLKMDLYRFPITPPGTGCWSWDWLTVTPDFPRSGYWKWPKIAEVDGVVGPLHLDSGHPTCDPLTSVLPHGFNYLQSITTTNFTMVLHGYFVPKQSGKYTFEFKADDALLLNLGAGNAFSCCDYNNSQYNQGEYLAYAIWSKNNQTATLYLEKGIYYPIRVFYHNRCCGAYMDVVYYFNDSPIPNRDFSGLLFSIPDSDSCDANI
glycan array binding signal (z-score) [1]: -0.298 | glycan array binding signal (z-score) (GalNAc(b1-3)Gal): -0.045 | glycan array binding signal (z-score) [2]: -0.453 | glycan array binding signal (z-score) [3]: -0.035 | glycan array binding signal (z-score) [4]: -0.582 | glycan array binding signal (z-score) (GalNAc(b1-3)GalNAc): -0.617 | glycan array binding signal (z-score) (GalNAc(b1-3)GlcNAc): -0.422 | glycan array binding signal (z-score) (GalNAc(b1-4)Gal(b1-4)Glc): -0.222 | glycan array binding signal (z-score) (GalNAc(b1-4)GlcNAc): 0.066 | glycan array binding signal (z-score) [5]: -0.584 | glycan array binding signal (z-score) [6]: 0.288 | glycan array binding signal (z-score) [7]: 0.282 | glycan array binding signal (z-score) (GalNAc(b1-4)GlcNAc6S): 0.9 | glycan array binding signal (z-score) (GalNAc(b1-6)GalNAc): -0.563 | glycan array binding signal (z-score) (GalNAc3S(b1-4)GlcNAc): 0.345 | glycan array binding signal (z-score) (GalNAc3S(b1-4)GlcNAc3S): -0.059 | glycan array binding signal (z-score) [8]: -0.597 | glycan array binding signal (z-score) (GalNAc4S6S(b1-4)GlcNAc): 0.402 | glycan array binding signal (z-score) (GalNAc6S(b1-4)GlcNAc): -0.25 | glycan array binding signal (z-score) (Glc(a1-4)Glc): -0.414 | glycan array binding signal (z-score) [9]: -0.046 | glycan array binding signal (z-score) (Glc(a1-6)Glc(a1-6)Glc): -0.35 | glycan array binding signal (z-score) [10]: 0.578 | glycan array binding signal (z-score) (Glc(b1-4)Glc): -0.662 | glycan array binding signal (z-score) (Glc(b1-6)Glc): -0.72 | glycan array binding signal (z-score) (GlcA(b1-3)Gal): -0.233 | glycan array binding signal (z-score) (GlcA(b1-3)GlcNAc): 0.14 | glycan array binding signal (z-score) (GlcA(b1-6)Gal): 0.808 | glycan array binding signal (z-score) [11]: -0.081 | glycan array binding signal (z-score) [12]: -0.444 | glycan array binding signal (z-score) [13]: -0.82 | glycan array binding signal (z-score) [14]: -0.942 | glycan array binding signal (z-score) [15]: -0.211 | glycan array binding signal (z-score) [16]: -0.35 | glycan array binding signal (z-score) [17]: -0.384 | glycan array binding signal (z-score) [18]: -0.403 | glycan array binding signal (z-score) [19]: -0.911 | glycan array binding signal (z-score) [20]: 0.304
